# Binding screen against folded nucleic acids

Calls as published in the ROBIN set (doi:10.1002/anie.202211358).

Targets, with sequences 5′ to 3′:
SAM-II: SAM-II riboswitch RNA pseudoknot, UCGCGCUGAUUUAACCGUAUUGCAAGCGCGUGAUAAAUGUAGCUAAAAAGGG. About 21,000 compounds screened, about 200 hits.
TPP: TPP riboswitch RNA three-way junction, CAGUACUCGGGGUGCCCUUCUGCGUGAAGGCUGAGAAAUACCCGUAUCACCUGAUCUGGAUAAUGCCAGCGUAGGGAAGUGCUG. About 24,000 compounds screened, about 160 hits.
PreQ1: PreQ1 riboswitch RNA pseudoknot, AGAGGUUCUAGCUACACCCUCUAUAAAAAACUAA. From B. subtilis. About 24,000 compounds screened, about 170 hits.

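Each compound is printed as two spots on a slide made to bind it covalently, so it has no test concentration; the read-out is fluorescence of the bound, labelled oligonucleotide. For the PreQ1, TPP and SAM-II riboswitches the laboratory earlier reported (doi:10.1038/s41467-019-09493-3) 1 µM RNA, 2 h, and a rule that included a mean Z-score above 3 (spot signal-to-noise against the whole library), a score well above that on a control array, and duplicate spots agreeing (coefficient of variation under 100). The data file gives only the calls; its cut-offs may differ, and compounds hitting several targets are kept. These are primary screening calls, not affinities; a compound without a hit may have attached poorly or may still bind in solution.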 “hit” means called a hit, “no hit” means screened and not called a hit. The compounds are a random part of those screened. A target missing from an entry has no call listed here.

* COc1ccc(Nc2nc(-c3cccnc3)cs2)cc1 | SAM-II: no hit; TPP: no hit; PreQ1: no hit
* N#CC1=C(N)OC2=C(C1c1ccccc1Cl)S(=O)(=O)N(Cc1ccc(F)cc1)c1ccccc12 (stereo not shown) | TPP: no hit; PreQ1: no hit
* Nc1nc(N2CCC3(CC2)OCCCC3O)cc2nncn12 (stereo not shown) | SAM-II: no hit; TPP: no hit; PreQ1: no hit
* CCCNc1nc2c(c(=O)[nH]c(=O)n2C)n1CCO | SAM-II: no hit; TPP: no hit; PreQ1: no hit
* O=C(O)C1NCCc2[nH]c(-c3cnn(Cc4ccccc4)c3)nc21 (stereo not shown) | SAM-II: no hit; TPP: no hit; PreQ1: no hit
* COc1ccc([C@H]2CN(C(=O)c3cccc(C(F)(F)F)c3)C[C@@H]2N)cc1 | SAM-II: no hit; TPP: no hit; PreQ1: no hit
* CC(C)[C@@H]1CN(Cc2cccc(CCN)c2)C[C@H]1N(C)C | SAM-II: no hit; TPP: no hit; PreQ1: no hit
* Clc1ccc(-c2csc(NCc3ccccc3)n2)cc1 | SAM-II: no hit; TPP: no hit; PreQ1: no hit
* Cc1cc(C)cc(CN2CCN(c3cccc(C(C)O)n3)CC2=O)c1 (stereo not shown) | SAM-II: no hit; TPP: no hit; PreQ1: no hit
* Cc1ccccc1CSCCCNC(=O)C1CCCNC1 (stereo not shown) | SAM-II: no hit; TPP: no hit; PreQ1: no hit
* Cc1cccc(N2CCN(CCC(=O)NC[C@@H]3C[C@H](F)CN3)CC2)c1 | SAM-II: no hit; TPP: no hit; PreQ1: no hit
* COc1cccc2c1OCCCN(C(=O)c1cn3c(n1)CNCC3)C2 | SAM-II: no hit; TPP: no hit; PreQ1: no hit
* CCC1=CC(=C2NNC(C)=C2c2ccc3c(c2)OCCO3)C(=O)C=C1O | SAM-II: no hit; TPP: no hit; PreQ1: no hit
* CCOP(=O)(OCC)/C(C#N)=C/c1c[nH]c2ccccc12 | SAM-II: no hit; TPP: no hit; PreQ1: no hit
* COc1ccc(Nc2cc(C)nc(N)n2)cc1 | SAM-II: no hit; TPP: no hit; PreQ1: no hit
* CON=C(C(=O)N[C@@H]1C(=O)N2C(C(=O)OCOC(=O)C(C)(C)C)=C(C=Cc3scnc3C)CS[C@H]12)c1csc(N)n1 | SAM-II: no hit; TPP: no hit; PreQ1: no hit
* CCOC(=O)c1cnc(Nc2nc3ccccc3o2)nc1CN1CCN(c2ccccc2)CC1 | SAM-II: no hit; TPP: no hit; PreQ1: no hit
* N[C@H]1CN(C(=O)c2cccnn2)C[C@@H]1c1ccccc1 | SAM-II: no hit; TPP: no hit; PreQ1: no hit
* CCOC(=O)C1CCN(c2c(NCCCN(C)C3CCCCC3)c(=O)c2=O)CC1 | SAM-II: no hit; TPP: no hit; PreQ1: no hit
* CSc1ccccc1CN1CCC(C(O)Cc2ccccc2)CC1 (stereo not shown) | SAM-II: no hit; TPP: no hit; PreQ1: no hit
* Cc1cc(C)n(CC(O)c2ccccc2)n1 (stereo not shown) | SAM-II: no hit; TPP: no hit; PreQ1: no hit
* C=C[C@@H]1CN2CCC1C[C@@H]2[C@@H](O)c1ccnc2ccccc12 (stereo partly shown) | SAM-II: no hit; TPP: no hit; PreQ1: no hit
* CCNc1c(NS(=O)(=O)c2ccc(Cl)cc2)c(=O)oc2ccccc12 | SAM-II: no hit; TPP: no hit; PreQ1: no hit
* COc1ccc([C@H]2CN(C(=O)Cn3nc(C)c(C(C)=O)c3C)C[C@@H]2N)cc1 | SAM-II: no hit; TPP: no hit; PreQ1: no hit
* CC(=O)c1c(O)c(C)c(O)c2c1OC1=CC(=O)/C(=C(/C)N)C(=O)C12C (stereo not shown) | SAM-II: no hit; TPP: no hit; PreQ1: no hit
* Nc1c(C(=O)Nc2ccc(F)cc2)sc2nc(-c3ccncc3)ccc12 | SAM-II: no hit; TPP: no hit; PreQ1: no hit
* CCCn1ccnc1CN1CCCC(O)(CO)C1 (stereo not shown) | SAM-II: no hit; TPP: no hit; PreQ1: no hit
* Clc1ccccc1-n1cc(-c2ccccc2)c2c(NCCCN3CCOCC3)ncnc21 | TPP: no hit; PreQ1: no hit
* CC(NC(=O)c1cn(CCN)nn1)c1ccc2c(c1)OCCCO2 (stereo not shown) | SAM-II: no hit; TPP: no hit; PreQ1: no hit
* COc1ccccc1C=CCN1CC[C@@H](c2sccc2C)[C@H](O)C1 | SAM-II: no hit; TPP: no hit; PreQ1: no hit
* Cc1ncc(C)c(N2CCC(CO)(Cc3cccc(C(F)(F)F)c3)CC2)n1 | SAM-II: no hit; TPP: no hit; PreQ1: no hit
* Cc1noc(C)c1C(=O)N[C@H]1CN[C@H](C(=O)NCCc2ccccn2)C1 | SAM-II: no hit; TPP: no hit; PreQ1: no hit
* CCC(C)c1c(N)n(S(=O)(=O)c2ccc(C)cc2)oc1=O (stereo not shown) | SAM-II: no hit; TPP: no hit; PreQ1: no hit
* OCc1ccc(CN2CCN(c3ccncc3)CC(O)C2)o1 (stereo not shown) | SAM-II: no hit; TPP: no hit; PreQ1: no hit
* Cc1ccc(C2C(C#N)=C(N)Oc3cc(O)ccc32)cc1 (stereo not shown) | SAM-II: no hit; TPP: no hit; PreQ1: no hit
* COc1ccc(-c2csc(Nc3ccc(N(C)C)cc3)n2)cc1OC | SAM-II: no hit; TPP: no hit; PreQ1: no hit
* Cn1ccnc1CN(CCO)C(=O)c1cccc2c1OCC2 | SAM-II: no hit; TPP: no hit; PreQ1: no hit

For reference, 5 entries once more:

| compound | SAM-II | TPP | PreQ1 |
|---|---|---|---|
| `COc1cccc2c1OCCCN(C(=O)c1cn3c(n1)CNCC3)C2` | no hit | no hit | no hit |
| `OCc1ccc(CN2CCN(c3ccncc3)CC(O)C2)o1` (stereo not shown) | no hit | no hit | no hit |
| `CON=C(C(=O)N[C@@H]1C(=O)N2C(C(=O)OCOC(=O)C(C)(C)C)=C(C=Cc3scnc3C)CS[C@H]12)c1csc(N)n1` | no hit | no hit | no hit |
| `COc1ccc([C@H]2CN(C(=O)c3cccc(C(F)(F)F)c3)C[C@@H]2N)cc1` | no hit | no hit | no hit |
| `N[C@H]1CN(C(=O)c2cccnn2)C[C@@H]1c1ccccc1` | no hit | no hit | no hit |